From patent US8501715B2, “Oxidized lipids and uses thereof in the treatment of inflammatory diseases and disorders” (Vascular Biogenics Ltd., priority 2003, dated 2013)

Columns and labels:
[1] = Body weight of Apo-E KO mice; type: in vivo, mouse
[2] = test system: monocytes, dendritic, T and B cell lines; experiment: 3H-CI-201 uptake in immune cell lines; type: cell-based; conditions: radioactive levels only at the 24 hours time point compared to control cells
[3] = Plasma/serum cholesterol and triglyceride levels in Apo-E KO mice; type: in vivo, mouse
[4] = oral 0.1 μg/dose, 3 monthly sets of 5 administrations, END (12 weeks)
[5] = oral 1 μg/dose, 3 monthly sets of 5 administrations, END (12 weeks)
[6] = oral 10 μg/dose, 3 monthly sets of 5 administrations, END (12 weeks)
[7] = oral 0.1 μg/dose, 3 monthly sets of 5 administrations, T = 0
[8] = oral 1 μg/dose, 3 monthly sets of 5 administrations, T = 0
[9] = oral 10 μg/dose, 3 monthly sets of 5 administrations, 26-28 weeks old mice, T = 0
[10] = oral 1 mg/mouse, 5 feedings every other day every 4 weeks over 12 weeks, 24.5 week old mice, End
[11] = oral 1 mg/mouse, 5 feedings every other day every 4 weeks over 12 weeks, 24.5 week old mice, time point 0
[12] = i.p. immunization x4 every 2 weeks (ALLE 150 μg/mouse coupled to PPD; PPD alone), End
[13] = nasal 10 μg/mouse L-ALLE every other day for 3 days, End
[14] = nasal 10 μg/mouse L-ALLE every other day for 3 days, Time 0
[15] = oral 10 μg/mouse L-ALLE+D-ALLE every other day for 5 days, End
[16] = oral 1 mg/mouse L-ALLE every other day for 5 days, End
[17] = oral 1 mg/mouse L-ALLE+D-ALLE every other day for 5 days, End
[18] = i.p. immunization x4 every 2 weeks (ALLE 150 μg/mouse coupled to PPD; PPD alone), Time 0
[19] = oral 10 μg/mouse L-ALLE+D-ALLE every other day for 5 days, Time 0
[20] = oral 1 mg/mouse L-ALLE every other day for 5 days, Time 0
[21] = oral 1 mg/mouse L-ALLE+D-ALLE every other day for 5 days, Time 0
[22] = oral 0.2 mg/mouse every other day for 5 days, End
[23] = oral 1 mg/mouse every other day for 5 days, End
[24] = oral 0.2 mg/mouse every other day for 5 days, time point 0
[25] = oral 1 mg/mouse every other day for 5 days, time point 0
[26] = oral 5 mg/mouse every other day for 5 days, End
[27] = oral 5 mg/mouse every other day for 5 days, time point 0

With `CCCCCCCCCCCCCCCCOC[C@H](COP(=O)([O-])OCC[N+](C)(C)C)OCCCCC(=O)O` [CI-201, 1-Hexadecyl-2-(5′-Carboxy-butyl)-sn-glycero-3-phosphocholine] the Weight ([1]; oral 0.1 μg/dose, 3 monthly sets of 5 administrations, 26-28 weeks old mice, T = 0) was 26.6 ± 0.4 g, the Weight [1, 4] was 28.8 ± 0.7 g and the Weight ([1]; oral 1 μg/dose, 3 monthly sets of 5 administrations, 26-28 weeks old mice, T = 0) was 26.4 ± 0.4 g. It also gave a Weight [1, 5] of 29.0 ± 0.4 g, a Weight ([1]; oral 10 μg/dose, 3 monthly sets of 5 administrations every other day, 26-28 weeks old mice, T = 0) of 26.6 ± 0.5 g and a Weight [1, 6] of 29.6 ± 0.5 g. The “radiolabeled CI-201 incorporation in T cells” value [2] was “mild increase”, the “Cholesterol (plasma)” value [3, 4] was 406 ± 39 mg/dL and the “Triglyceride (plasma)” value [3, 4] was 107 ± 13 mg/dL. For the same compound, the “Cholesterol (plasma)” value [3, 7] was 313 ± 14 mg/dL, the “Triglyceride (plasma)” value [3, 7] was 87 ± 6 mg/dL and the “Cholesterol (plasma)” value [3, 5] was 382 ± 24 mg/dL. For the same compound, the “Triglyceride (plasma)” value [3, 5] was 96 ± 8 mg/dL, the “Cholesterol (plasma)” value [3, 8] was 323 ± 20 mg/dL and the “Triglyceride (plasma)” value [3, 8] was 87 ± 4 mg/dL. For the same compound, the “Cholesterol (plasma)” value [3, 9] was 321 ± 23 mg/dL, the “Triglyceride (plasma)” value [3, 9] was 88 ± 4 mg/dL and the “Cholesterol (plasma)” value [3, 6] was 344 ± 25 mg/dL. For the same compound, the “Triglyceride (plasma)” value [3, 6] was 76 ± 4 mg/dL.

In the case of `CCCCCCCCCCCCCCCCOC[C@H](COP(=O)([O-])OCC[N+](C)(C)C)OCCCCC=O` [D-ALLE, 1-hexadecyl-2-(5′-oxo-pentanyl)-sn-glycero-3-phosphocholine], the Weight [1, 10] is reported as 30.4 ± 0.8 grams, the Weight [1, 11] is reported as 29.8 ± 0.7 grams and the “Cholesterol (plasma)” value [3, 10] is reported as 394 ± 15 mg/dL. For the same compound, the “Triglyceride (plasma)” value [3, 10] was 94 ± 4 mg/dL, the “Cholesterol (plasma)” value [3, 11] was 409 ± 28 mg/dL and the “Triglyceride (plasma)” value [3, 11] was 63 ± 4 mg/dL.

With `CCCCCCCCCCCCCCCCOC[C@@H](COP(=O)([O-])OCC[N+](C)(C)C)OCCCCC=O` [L-ALLE, 3-hexadecyl-2-(5′-oxo-pentanyl)-sn-glycero-1-phosphocholine] the Weight [1, 10] was 29.7 ± 0.5 grams, the Weight [1, 11] was 29 ± 0.6 grams and the “Cholesterol (plasma)” value [3, 10] was 391 ± 18 mg/dL. The “Triglyceride (plasma)” value [3, 10] was 83 ± 4 mg/dL, the “Cholesterol (plasma)” value [3, 11] was 413 ± 23 mg/dL and the “Triglyceride (plasma)” value [3, 11] was 63 ± 8 mg/dL.

Compound 2,5′-Aldehyde Lecithin Ether [ALLE] has a Weight [1, 12] of 20.5 ± 0.5 grams, a Weight ([1]; i.p. immunization x4 every 2 weeks (ALLE 150 μg/mouse coupled to PPD; PPD alone), Time 0 (prior to immunization)) of 17.3 ± 0.5 grams and a Weight [1, 13] of 24.2 ± 0.2 grams. For the same compound, the Weight [1, 14] was 21.1 ± 0.7 grams, the Weight [1, 15] was 24.1 ± 0.8 grams and the Weight ([1]; oral 10 μg/mouse L-ALLE+D-ALLE every other day for 5 days, Time 0 (prior to feeding)) was 21.1 ± 0.8 grams. The Weight [1, 16] was 23.3 ± 1.1 grams, the Weight ([1]; oral 1 mg/mouse L-ALLE every other day for 5 days, Time 0 (prior to feeding)) was 21.1 ± 0.8 grams and the Weight [1, 17] was 27.4 ± 0.5 grams. For the same compound, the Weight ([1]; oral 1 mg/mouse L-ALLE+D-ALLE every other day for 5 days, Time 0 (prior to feeding)) was 21.5 ± 0.8 grams, the “Chol (plasma cholesterol)” value [3, 12] was 299 ± 18 mg/dL and the “TG (plasma triglycerides)” value [3, 12] was 57 ± 3 mg/dL. The “Chol (plasma cholesterol)” value [3, 18] was 435 ± 47 mg/dL, the “TG (plasma triglycerides)” value [3, 18] was 118 ± 9 mg/dL and the “Chol (plasma cholesterol)” value [3, 13] was 328 ± 18 mg/dL. The “TG (plasma triglycerides)” value [3, 13] was 74 ± 6 mg/dL, the “Chol (plasma cholesterol)” value [3, 14] was 353 ± 31 mg/dL and the “TG (plasma triglycerides)” value [3, 14] was 143 mg/dL. The “Chol (serum cholesterol)” value [3, 15] was 321 ± 15 mg/dL, the “TG (serum triglycerides)” value [3, 15] was 93 ± 6 mg/dL and the “Chol (serum cholesterol)” value [3, 19] was 378 ± 31 mg/dL. The “TG (serum triglycerides)” value [3, 19] was 90 mg/dL, the “Chol (plasma cholesterol)” value [3, 16] was 418 ± 43 mg/dL and the “TG (plasma triglycerides)” value [3, 16] was 82 ± 7 mg/dL. For the same compound, the “Chol (plasma cholesterol)” value [3, 20] was 362 ± 27 mg/dL, the “TG (plasma triglycerides)” value [3, 20] was 144 mg/dL and the “Chol (serum cholesterol)” value [3, 17] was 249 ± 24 mg/dL. For the same compound, the “TG (serum triglycerides)” value [3, 17] was 78 ± 8 mg/dL, the “Chol (serum cholesterol)” value [3, 21] was 379 ± 23 mg/dL and the “TG (serum triglycerides)” value [3, 21] was 98 mg/dL.

Work on `C=CCCCCO[C@H](COCCCCCCCCCCCCCCCC)COP(=O)([O-])OCC[N+](C)(C)C` [Compound V, 1-Hexadecyl-2-(5′-hexenyl)-sn-glycero-3-phosphocholine] yielded a Weight ([1]; oral 0.1 μg/dose, 3 monthly sets of 5 administrations, 23-26 weeks old mice, T = 0) of 26.1 ± 0.7 g, a Weight [1, 4] of 28.1 ± 0.5 g and a Weight [1, 22] of 20.1 ± 0.3 grams. The Weight ([1]; oral 0.2 mg/mouse every other day for 5 days, female 8-10 week old mice, time point 0) was 18.5 ± 0.3 grams, the Weight [1, 23] was 19.8 ± 0.2 grams and the Weight ([1]; oral 1 mg/mouse every other day for 5 days, female 8-10 week old mice, time point 0) was 18.3 ± 0.3 grams. It also gave a Weight ([1]; oral 5 mg/mouse every other day for 5 days, End (8 weeks after last administration)) of 19.8 ± 0.3 grams, a Weight ([1]; oral 5 mg/mouse every other day for 5 days, female 8-10 week old mice, time point 0) of 18.0 ± 0.3 grams and a Cholesterol [3, 4] of 292 ± 16 mg/DI. For the same compound, the Triglyceride [3, 4] was 81 ± 3 mg/DI, the Cholesterol [3, 7] was 401 ± 27 mg/DI and the Triglyceride [3, 7] was 128 ± 8 mg/DI. The “Cholesterol (serum)” value [3, 22] was 409 ± 8 mg/dL, the “Triglyceride (serum)” value ([3]; oral 0.2 mg/mouse every other day for 5 days, End, P< 0.001 versus PBS) was 102 ± 5 mg/dL and the “Cholesterol (serum)” value [3, 24] was 214 ± 21 mg/dL. For the same compound, the “Triglyceride (serum)” value [3, 24] was 50 ± 7 mg/dL, the “Cholesterol (serum)” value [3, 23] was 398 ± 23 mg/dL and the “Triglyceride (serum)” value ([3]; oral 1 mg/mouse every other day for 5 days, End, P< 0.05 versus PBS) was 91 ± 4 mg/dL. The “Cholesterol (serum)” value [3, 25] was 198 ± 23 mg/dL, the “Triglyceride (serum)” value [3, 25] was 52 ± 5 mg/dL and the “Cholesterol (serum)” value [3, 26] was 431 ± 23 mg/dL. For the same compound, the “Triglyceride (serum)” value [3, 26] was 80 ± 8 mg/dL, the “Cholesterol (serum)” value [3, 27] was 210 ± 18 mg/dL and the “Triglyceride (serum)” value [3, 27] was 52 ± 4 mg/dL.
